PubChem BioAssay AID248 (DTP/NCI, 2004)
The list shows only some results of the screen, not a fair sample: it is rich in T/C values a quarter to a half above the control, in often repeated tests (any T/C) and in doses without a T/C. Further doses and runs are listed elsewhere. T/C: endpoint of the treated group in % of that of the vehicle group. Some entries give survivors of the animals treated and no T/C: the source files T/C as zero there, which appears to mark a toxic dose or a test without result, not a measured value. Some survivor counts are full or nearly so, which does not show that the dose was tolerated: the source hardly ever lists a survival T/C far under the control, and the zero likely stands for such cases as well. Survivors were counted at the toxicity check, usually on the fifth day, unless a day is given; later deaths do not show. Schedule codes are those of the source, read here as Q, the interval in days (D) or hours (H), X, the number of doses. Some entries hold several experiments; their values stand side by side, smallest first. Some molecules as drawn cover several salts, stereoisomers or complexes of the source; a dose is that of the sample tested. Where survival is the endpoint, the PubChem record calls one and a half times the control and up active, and a quarter to a half above the control has no call in these data; cut-offs in other NCI protocols can differ. Some T/C values carry the count of animals alive at the toxicity check (mostly the fifth day); where none is given, no animal had died by that day.

System: L1210 leukemia ip in BDF1 mice, survival T/C
Assay: NCI In Vivo Anticancer Drug Screen. Data for tumor model L1210 Leukemia (intraperitoneal) in B6D2F1 (BDF1) mice
Details: T/C endpoint: mean survival time, higher T/C = longer survival
[1] = dose: 50.0 mg/kg/injection, schedule: Q01DX001 (ip), vehicle: saline
[2] = dose: 100.0 mg/kg/injection, schedule: Q04DX002 (ip), vehicle: Klucel (hydroxypropylcellulose) (HPC)
[3] = dose: 400.0 mg/kg/injection, schedule: Q04DX003 (ip), vehicle: saline
[4] = dose: 200.0 mg/kg/injection, schedule: Q01DX009 (ip), vehicle: saline
[5] = dose: 400.0 mg/kg/injection, schedule: Q04DX002 (ip), vehicle: saline

Q: Which survivor count (dose: 40.0 mg/kg/injection, schedule: Q01DX001 (ip), vehicle: saline) does the source give for CCCC[P+](CCCC)(CCCC)CCCC here?
A: 0 of 4

Q: And the survivor count [1]?
A: 1 of 4

Q: And the survivor count (dose: 50.0 mg/kg/injection, schedule: Q04DX002 (ip), vehicle: Klucel (hydroxypropylcellulose) (HPC))?
A: 0 of 3

Q: And the survivor count (dose: 80.0 mg/kg/injection, schedule: Q01DX001 (ip), vehicle: saline)?
A: 0 of 4

Q: And the survivor count (dose: 100.0 mg/kg/injection, schedule: Q01DX001 (ip), vehicle: saline)?
A: 2 of 4

Q: What about the survivor count [2] of the same compound?
A: 0 of 3

Q: What about the survivor count (dose: 200.0 mg/kg/injection, schedule: Q01DX001 (ip), vehicle: saline) of the same compound?
A: 1 of 4

Q: And the survivor count (dose: 400.0 mg/kg/injection, schedule: Q01DX001 (ip), vehicle: saline)?
A: 0 of 4

Q: O=C(Nc1ccc(Cl)cc1)Oc1c(Cl)cc(S(=O)(=O)F)cc1Cl was tested. Which survivor count (dose: 200.0 mg/kg/injection, schedule: Q01DX009 (ip), vehicle: Klucel (hydroxypropylcellulose) (HPC)) did it give?
A: 0 of 3

Q: And the survivor count (dose: 200.0 mg/kg/injection, schedule: Q04DX002 (ip), vehicle: Klucel (hydroxypropylcellulose) (HPC))?
A: 3 of 3

Q: And the survivor count (dose: 400.0 mg/kg/injection, schedule: Q04DX002 (ip), vehicle: Klucel (hydroxypropylcellulose) (HPC))?
A: 2 of 3

Q: ONC(=Nc1ccccc1)c1ccccc1 was tested. Which survivor count [3] did it give?
A: 3 of 6

Q: O=[N+]([O-])Nc1cc(Cl)nc(Cl)c1 was tested. Which survivor count (dose: 300.0 mg/kg/injection, schedule: Q01DX001 (ip), vehicle: carboxymethylcellulose (CMC)) did it give?
A: 1 of 6

Q: With C=CCCC1(CCC(C)C)C(=O)NC(=O)NC1=O as the compound, how does the survivor count (dose: 300.0 mg/kg/injection, schedule: Q01DX001 (ip), vehicle: saline) read?
A: 1 of 6

Q: CC(C)n1cc2c(N)ncnc2n1 was tested. Which survivor count [4] did it give?
A: 6 of 6

Q: C[CH2][Ge]1([CH2]C)[CH2]CC2(CCN(CCCN(C)C)C2)C[CH2]1 was tested. Which T/C (dose: 100.0 mg/kg/injection, schedule: Q04DX002 (ip), vehicle: saline) did it give?
A: 94, 98, 109 [4 of 6 alive], 113 % of control

Q: And the survivor count (dose: 100.0 mg/kg/injection, schedule: Q04DX003 (ip), vehicle: saline)?
A: 3 of 6

Q: And the survivor count [4]?
A: 0 of 6

Q: And the survivor count (dose: 200.0 mg/kg/injection, schedule: Q04DX002 (ip), vehicle: saline)?
A: 0 of 3 and 0 of 6

Q: And the survivor count (dose: 200.0 mg/kg/injection, schedule: Q04DX003 (ip), vehicle: saline)?
A: 0 of 6

Q: What about the survivor count (dose: 400.0 mg/kg/injection, schedule: Q01DX009 (ip), vehicle: saline) of the same compound?
A: 0 of 6

Q: And the survivor count [5]?
A: 0 of 3 and 0 of 6

Q: What about the survivor count [3] of the same compound?
A: 0 of 6

Q: With CCN(CC)CCOc1ccc(C=O)cc1 as the compound, how does the survivor count [5] read?
A: 3 of 3

Q: How did the survivor count (dose: 400.0 mg/kg/injection, schedule: Q01DX009 (ip), vehicle: dextrose) turn out when C=Cc1c2[n-]c(c1C)/C=c1\[n-]/c(c(C)c1C=C)=C\c1[n-]c(c(CCC(=O)O)c1C)/C=c1\[n-]/c(c(C)c1CCC(=O)O)=C\2.[Co] was run?
A: 3 of 6

Q: Which results are given for Cc1cc(Br)c2c(c1O)C13CCN(C)C(C2)C1CC(Br)C(=O)C3 (centres undefined)?
A: survivor count (dose: 25.0 mg/kg/injection, schedule: Q01DX001 (ip), vehicle: saline): 3 of 6; survivor count [1]: 0 of 6

Q: For COC(=O)c1cc([N+](=O)[O-])cc2ccccc12, which survivor count (dose: 400.0 mg/kg/injection, schedule: Q01DX009 (ip), vehicle: Klucel (hydroxypropylcellulose) (HPC)) is on record?
A: 4 of 6

Q: How did the survivor count (dose: 75.0 mg/kg/injection, schedule: Q01DX001 (ip), vehicle: saline) turn out when CN1CCCCC(c2ccccc2)(c2ccccc2)C1=N was run?
A: 0 of 6

Q: What about the survivor count (dose: 150.0 mg/kg/injection, schedule: Q01DX001 (ip), vehicle: saline) of the same compound?
A: 0 of 6

Q: Which survivor count (dose: 300.0 mg/kg/injection, schedule: Q01DX001 (ip), vehicle: other) does the source give for Cc1nccc2ccsc12 here?
A: 2 of 6

Q: CC(=O)Nc1ccc2ccccc2c1-c1c(NC(C)=O)ccc2ccccc12 was tested. Which survivor count (dose: 100.0 mg/kg/injection, schedule: Q04DX002 (ip), vehicle: saline with Tween-80) did it give?
A: 3 of 3

Q: O=C(Nc1ccccc1C(F)(F)F)Nc1cccc2c(O)cccc12 was tested. Which survivor count (dose: 100.0 mg/kg/injection, schedule: Q04DX002 (ip), vehicle: carboxymethylcellulose (CMC)) did it give?
A: 3 of 3

Q: Which survivor count [2] does the source give for CCN(CCCl)CC1C(c2ccccc2)C1c1ccccc1 (centres undefined) here?
A: 0 of 3
